Results are given in words; binding and its absence hold for the method and conditions named. Binding can be weak; no strength is given. Where a sequence is shown, tags or fusion partners need not be part of it.

Here are results for 4 substances from paper PMC8144621, “A two-hybrid system reveals previously uncharacterized protein–protein interactions within the Helicobacter pylori NIF iron–sulfur maturation system” (Scientific Reports, 2021).

For assay [1], the target named is T1, ApbC (HP0207), BACTH fusion (Helicobacter pylori strain 26695) (UniProt O24999).
T1 sequence: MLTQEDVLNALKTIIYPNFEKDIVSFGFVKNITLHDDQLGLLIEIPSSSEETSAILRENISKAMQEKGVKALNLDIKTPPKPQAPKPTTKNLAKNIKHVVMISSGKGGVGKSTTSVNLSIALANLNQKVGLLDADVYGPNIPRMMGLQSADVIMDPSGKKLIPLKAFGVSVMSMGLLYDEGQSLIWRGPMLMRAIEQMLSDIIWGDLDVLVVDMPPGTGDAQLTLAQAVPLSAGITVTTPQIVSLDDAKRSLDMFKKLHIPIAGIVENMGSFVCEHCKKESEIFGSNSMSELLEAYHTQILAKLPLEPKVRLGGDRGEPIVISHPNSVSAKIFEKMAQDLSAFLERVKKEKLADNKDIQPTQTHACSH
The assay can be described thus: two-hybrid; BACTH in E. coli BTH101 (cya); T25 fusion (pKT25 or pKNT25) with T18 fusion (pUT18C); screening on LB-X-Gal plates with 0.5 mM IPTG, 0.1 mM FeCl3, 0.5 mM L-cysteine; 30 °C, 36-48 h, aerobic; positive clones turn blue.

For assay [2], the target named is T1, ApbC (HP0207), BACTH fusion (Helicobacter pylori strain 26695). The experiment in a line: two-hybrid; BACTH (bacterial adenylate cyclase two-hybrid) in E. coli BTH101 (cya); T25 fusion (pKT25 or pKNT25) with T18 fusion (pUT18C); screening on MacConkey-maltose (MC-Mal) plates with 0.5 mM IPTG, 0.1 mM FeCl3, 0.5 mM L-cysteine; 30 °C, 36-48 h, aerobic; positive clones turn red.

Assay [3] addresses T2, FdxA (HP0277), BACTH fusion (Helicobacter pylori strain 26695) (UniProt O25054).
T2 sequence: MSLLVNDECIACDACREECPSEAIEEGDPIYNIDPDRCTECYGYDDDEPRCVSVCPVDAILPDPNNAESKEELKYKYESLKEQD
Described as above.

Take “Nqo3 (HP1266), T18 fusion (from UniProt O25856)”: the binding entry in assay [1] and in assay [2] was “binds” in each case.
In the case of “[2Fe–2S] Ubiquinol cytochrome c oxidoreductase Rieske (HP1540), T18 fusion (from UniProt O26065)”, the binding entry in assay [3] is “binds”.
Take “hydrogenase subunit HynA (HP0631), T18 fusion (from UniProt O25348)”: the binding entry in assay [1] and in assay [2] was “binds” in each case.
For the substance “pyruvate-ferredoxin oxidoreductase subunit (HP1109), T18 fusion (from UniProt O25737)”, the binding entry in assay [1] and in assay [2] was “binds” in each case.
